The assay addresses T1, TREM2 (triggering receptor expressed on myeloid cells 2) with a Myc-tag at the C terminus, wild type (human) (UniProt Q9NZC2).
T1 sequence: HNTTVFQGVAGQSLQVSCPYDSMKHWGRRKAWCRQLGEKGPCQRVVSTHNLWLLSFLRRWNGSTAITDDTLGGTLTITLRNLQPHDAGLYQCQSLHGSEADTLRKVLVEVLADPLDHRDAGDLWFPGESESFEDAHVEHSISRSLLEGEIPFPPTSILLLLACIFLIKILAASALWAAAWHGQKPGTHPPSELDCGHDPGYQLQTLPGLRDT
Put plainly: co-IP; HEK293-TREM2 cells transfected with PS1; lysis in 1% Nonidet P-40, 50 mM Tris-HCl, 150 mM NaCl, 2 mM EDTA, pH 7.4; IP with Myc antibody or control IgG, Dynabeads Protein G, 4 °C overnight; blots with Ab14, anti-PS1 loop and NCT antibodies.

By UniProt entry, the sequences of proteins in these tests, tags left out. Residues count along the entry.
UniProt Q92542, residues 34-709: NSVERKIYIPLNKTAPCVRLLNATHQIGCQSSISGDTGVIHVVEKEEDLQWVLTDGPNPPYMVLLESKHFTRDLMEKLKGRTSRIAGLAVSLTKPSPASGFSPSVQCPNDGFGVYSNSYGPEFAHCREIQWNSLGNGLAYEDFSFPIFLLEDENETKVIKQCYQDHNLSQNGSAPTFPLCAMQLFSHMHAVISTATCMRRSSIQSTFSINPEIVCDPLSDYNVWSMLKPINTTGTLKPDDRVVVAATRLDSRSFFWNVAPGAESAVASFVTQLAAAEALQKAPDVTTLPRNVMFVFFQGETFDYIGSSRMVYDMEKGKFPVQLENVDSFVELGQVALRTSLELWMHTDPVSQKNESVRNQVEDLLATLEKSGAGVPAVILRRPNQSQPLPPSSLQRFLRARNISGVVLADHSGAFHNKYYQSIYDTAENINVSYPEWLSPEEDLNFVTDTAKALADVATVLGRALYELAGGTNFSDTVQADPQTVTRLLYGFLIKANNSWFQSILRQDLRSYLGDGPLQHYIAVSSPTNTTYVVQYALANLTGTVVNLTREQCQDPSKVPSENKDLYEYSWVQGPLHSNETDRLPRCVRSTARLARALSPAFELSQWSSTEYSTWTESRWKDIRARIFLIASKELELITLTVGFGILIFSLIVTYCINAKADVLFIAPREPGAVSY

Experimental findings from article PMC5750471 are described below.

No constants are given. Whether binding was seen depends on the method and setting. In cells and extracts the contact can be indirect. Where a sequence is shown, tags or fusion partners need not be part of it.

In the case of “nicastrin (NCT) (from UniProt Q92542 34-709)”, the binding entry is given as “no binding”.
